# Data as given in PMC7819943, “Rice protein-binding microarrays: a tool to detect cis-acting elements near promoter regions in rice”.
# Sequences of proteins named here, by UniProt entry; tags and fusion partners are left off.
# UniProt Q0JBA9, entry or part of it: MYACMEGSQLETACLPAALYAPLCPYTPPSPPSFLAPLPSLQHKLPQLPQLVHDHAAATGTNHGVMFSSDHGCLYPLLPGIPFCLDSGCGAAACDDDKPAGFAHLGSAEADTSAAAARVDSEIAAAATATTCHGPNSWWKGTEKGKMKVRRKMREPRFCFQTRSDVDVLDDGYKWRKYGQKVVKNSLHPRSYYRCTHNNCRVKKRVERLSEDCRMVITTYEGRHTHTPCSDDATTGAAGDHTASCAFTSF
# The list shows a part of the results.
# Target: OsWRKY34 (Oryza sativa, UniProt Q0JBA9 1-250)
# Assay: protein-binding microarray (RPBM); PBS, 2% BSA, 51.3 ng/ul salmon testes DNA, 50 uM zinc acetate, 200 nM TF, 25 C, 1 h; high values mean tight binding
# Conditions: protein: recombinant; tags: N-terminal polyhistidine and DsRed monomer fusion (pET32a); label: CyDye5-dUTP incorporated in the synthesized complementary strand; 3' TTTTT single-stranded linker to array surface; dsDNA, one strand shown
# In short: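 Binding signal is reported as fluorescence intensity per feature (arbitrary units) from an Axon 4000B scanner. Incubation used 200 nM of each Ni–NTA-purified, N-terminally polyhistidine- and DsRed-fused transcription factor from E. coli BL21-CodonPlus on a double-stranded custom Agilent array for 1 h at 25 °C, with 50 µM zinc acetate in the buffer, followed by washing.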
row,Sequence,binding signal
1,GCTTTCTTTTTTCTCTATGTTGATCAAATTTTAGTGTGGACGGAGTCACCTAGTGCAG,9710 fluorescence intensity (a.u.)
2,TCACGCGCATTCCTCCTCTACTATTCTCAATGTCTCTCTCCGGAGTCACCTAGTGCAG,9910 fluorescence intensity (a.u.)
3,AGGGCACTGTCATCGGGGTCAGGGTTAGGGTCACCGCCACCGGAGTCACCTAGTGCAG,9600 fluorescence intensity (a.u.)
4,TCTTGCCGTGTTTGGTTGGGATTGCATTTGATCAAGAGGACGGAGTCACCTAGTGCAG,9800 fluorescence intensity (a.u.)
5,ATTTTGATTAGTGCGTTTGATTAGTGGTGTTTATTATGTCCGGAGTCACCTAGTGCAG,9410 fluorescence intensity (a.u.)
6,TAGTAGTACTCATTTACCGTTGTGACAGTTTTTATTTATCCGGAGTCACCTAGTGCAG,12200 fluorescence intensity (a.u.)
7,GTACATGAGCTTTGTCTCTTTGGTAAACAGTTCTTTAAGGCGGAGTCACCTAGTGCAG,8020 fluorescence intensity (a.u.)
8,AACGCAATCAATTGTCCCTTATTTCCAGTGACATTCCTTACGGAGTCACCTAGTGCAG,10100 fluorescence intensity (a.u.)
9,CATTCCTTTCACCTAGTATTCTTTCTCTCATGCCTCTGTACGGAGTCACCTAGTGCAG,9220 fluorescence intensity (a.u.)
10,CACCGCCCACTGCCGCGCCGCTTCGCTCCGTCGCCGCTCGCGGAGTCACCTAGTGCAG,8990 fluorescence intensity (a.u.)
11,TCGTCGGTGGTGTGGGGAGGAGAAGATGGCCGGAGAGGAACGGAGTCACCTAGTGCAG,15000 fluorescence intensity (a.u.)
12,TTTCTTCCAACCGTCTCATCCCGCTGTTATGCTAATCCAGCGGAGTCACCTAGTGCAG,8220 fluorescence intensity (a.u.)
13,GTATATTAAAAGTCAACGACATGATTTTAAAAAAAAGTCACGGAGTCACCTAGTGCAG,8570 fluorescence intensity (a.u.)
14,TCCTCAAGATATCTCCACGTATAACTAATCTTGCATATCCCGGAGTCACCTAGTGCAG,9450 fluorescence intensity (a.u.)
15,GCTCGCACGATCCATACATGCACAGCCACTAACTACTGCACGGAGTCACCTAGTGCAG,10800 fluorescence intensity (a.u.)
16,CCTTCTCTTTTGTATTGCCCCATTGCTCATTGTTTACTCCCGGAGTCACCTAGTGCAG,12400 fluorescence intensity (a.u.)
17,CCTTCCTTGATCTTTCCTCTCTCTTCTTTGCCTGCCTATACGGAGTCACCTAGTGCAG,11700 fluorescence intensity (a.u.)
18,AACCAAATCAATGTCCTTTCCAGTCTGGTCTTGTGTTTGACGGAGTCACCTAGTGCAG,9580 fluorescence intensity (a.u.)
19,AATTTCCGCTAATGGGACAGGTTGACCATGGTTGACTTTGCGGAGTCACCTAGTGCAG,13000 fluorescence intensity (a.u.)
20,GCCTCACGCGTCCTCTTTTTCACCCAAGAACCGGTGGTATCGGAGTCACCTAGTGCAG,11200 fluorescence intensity (a.u.)
21,CTATTCATTTTGTATTGGATCCGATGCGTTTTATTTTCGTCGGAGTCACCTAGTGCAG,8430 fluorescence intensity (a.u.)

row,Sequence,binding signal
1,GGTACTTACGTGGCAGCCCAATAGCCACCACGACCCTCCGCGGAGTCACCTAGTGCAG,8590 fluorescence intensity (a.u.)
2,ATCGTTTACTTTCTTTTTGAAACTCCGTTAGATCGTTTACCGGAGTCACCTAGTGCAG,8120 fluorescence intensity (a.u.)
3,TCGTGACCGTTTTCACCCCTATATCACGTGATACTTGATACGGAGTCACCTAGTGCAG,8200 fluorescence intensity (a.u.)
4,TCACAATCATCGTCATTACATATCCCATATATCCCATTCACGGAGTCACCTAGTGCAG,8260 fluorescence intensity (a.u.)
5,CTAAACCCTGTACAATCCTCATCCACTCAGATCTCTCTTCCGGAGTCACCTAGTGCAG,8680 fluorescence intensity (a.u.)
6,ACTTCACGTTGCGCCTAGGACTGACGGTTTTCGTTAACCGCGGAGTCACCTAGTGCAG,8420 fluorescence intensity (a.u.)
7,CCAGTCCAGTTACAGCCTACAGGCATCTTCTTCACACGAACGGAGTCACCTAGTGCAG,9260 fluorescence intensity (a.u.)
8,TTTATACATGGTTTGTGTTTTTCTCACTTTGGGTTGGGGACGGAGTCACCTAGTGCAG,18000 fluorescence intensity (a.u.)
9,TTGAAACTAAACAAGGCATTTAGCTCAAACCCTCATTGACCGGAGTCACCTAGTGCAG,8470 fluorescence intensity (a.u.)
10,CACTCTCTCTTTCTGTGAAACAGTTCCTAATTTTGCACTGCGGAGTCACCTAGTGCAG,8260 fluorescence intensity (a.u.)
11,TTCACGTAACTTACTTGCTCTAATCGTCGGTGGCTGGATCCGGAGTCACCTAGTGCAG,9270 fluorescence intensity (a.u.)
12,TACTATTTCAGATTCTATTATCCCAACGCCCAACCTGCACCGGAGTCACCTAGTGCAG,8080 fluorescence intensity (a.u.)
13,CTTAACCGCCGTAGTACAGCTTTTGTTGACATTTTCTTTCCGGAGTCACCTAGTGCAG,8190 fluorescence intensity (a.u.)
14,TTATACATTTACTTTGCTTTTTTTTTTAAAAAAAAACACTCGGAGTCACCTAGTGCAG,9190 fluorescence intensity (a.u.)
15,AGTACCTCCGGAAGATGTTTAATGGGGTTTTTTCTCTTTTCGGAGTCACCTAGTGCAG,13700 fluorescence intensity (a.u.)
16,TGGGGATGTCTATGTATCATATTTTATATTCTTAAATTCACGGAGTCACCTAGTGCAG,10600 fluorescence intensity (a.u.)
17,TGCTCGTGGTGAATTTCGTGGTGTTTTTTTTTTACTGGTTCGGAGTCACCTAGTGCAG,10400 fluorescence intensity (a.u.)
18,CAGCTTGAACTTAGAGGTGGGTTGCTTAGCCTGGTTTTACCGGAGTCACCTAGTGCAG,9580 fluorescence intensity (a.u.)
19,AGTTATCTTTTGTGTTGGTATTGGAAGCACGCGTATAATTCGGAGTCACCTAGTGCAG,9930 fluorescence intensity (a.u.)
20,CTCCTTTTTTTTTTGTCAACGGTAGCACACACCTCAACGCCGGAGTCACCTAGTGCAG,9170 fluorescence intensity (a.u.)
21,GCGGTTCATTAGTGCGTGATTAATTAAGTATTAGCTATTTCGGAGTCACCTAGTGCAG,8420 fluorescence intensity (a.u.)

# Reprinted at random: 3 records from the list
row,Sequence,binding signal
9,CATTCCTTTCACCTAGTATTCTTTCTCTCATGCCTCTGTACGGAGTCACCTAGTGCAG,9220 fluorescence intensity (a.u.)
8,AACGCAATCAATTGTCCCTTATTTCCAGTGACATTCCTTACGGAGTCACCTAGTGCAG,10100 fluorescence intensity (a.u.)
10,CACCGCCCACTGCCGCGCCGCTTCGCTCCGTCGCCGCTCGCGGAGTCACCTAGTGCAG,8990 fluorescence intensity (a.u.)
